Test results: US20190324032A1 (University of California, published 2019)
Residue numbers refer to the chain shown, from its start. These are yes or no findings as the source states them, for the method shown. Binding seen in cells or lysates may run through a third protein. Some entries that bind do so weakly or less than the wild type.

Amino acid sequences for entries named in this document (tags omitted). A change or cut given only in a name is not applied to a line headed by its entry.
UniProt Q9WTL8: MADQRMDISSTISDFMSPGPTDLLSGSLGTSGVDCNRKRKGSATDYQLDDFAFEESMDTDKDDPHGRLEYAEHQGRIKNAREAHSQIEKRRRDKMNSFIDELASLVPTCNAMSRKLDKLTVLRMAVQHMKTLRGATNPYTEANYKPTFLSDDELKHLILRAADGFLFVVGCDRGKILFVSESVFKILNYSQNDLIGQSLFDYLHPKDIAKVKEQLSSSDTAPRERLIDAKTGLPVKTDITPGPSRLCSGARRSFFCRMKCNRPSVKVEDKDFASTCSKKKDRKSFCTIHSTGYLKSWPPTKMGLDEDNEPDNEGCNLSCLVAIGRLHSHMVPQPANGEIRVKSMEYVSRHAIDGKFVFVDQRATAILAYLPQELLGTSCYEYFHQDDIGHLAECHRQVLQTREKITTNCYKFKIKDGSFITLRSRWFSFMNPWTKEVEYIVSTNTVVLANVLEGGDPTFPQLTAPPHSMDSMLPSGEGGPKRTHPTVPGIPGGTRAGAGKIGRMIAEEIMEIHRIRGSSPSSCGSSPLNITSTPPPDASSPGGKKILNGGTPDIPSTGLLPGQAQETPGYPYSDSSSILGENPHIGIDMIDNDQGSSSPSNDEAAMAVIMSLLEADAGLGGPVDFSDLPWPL

What was measured:
[1] = biological target: T1, mouse CLOCK PAS-AB W362A (mouse) (UniProt O08785); assay: GST pull-down
T1 sequence: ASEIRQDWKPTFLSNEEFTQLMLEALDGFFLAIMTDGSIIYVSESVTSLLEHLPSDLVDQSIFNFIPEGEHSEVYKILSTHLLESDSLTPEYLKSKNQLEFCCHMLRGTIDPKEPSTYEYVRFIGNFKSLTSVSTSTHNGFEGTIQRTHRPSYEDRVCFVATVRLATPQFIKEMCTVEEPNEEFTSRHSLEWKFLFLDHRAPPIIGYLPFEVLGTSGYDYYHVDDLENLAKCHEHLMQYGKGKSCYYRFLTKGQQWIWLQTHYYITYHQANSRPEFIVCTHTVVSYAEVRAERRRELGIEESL

[2] = biological target: T2, mouse CLOCK PAS-AB (residues 93-395) (mouse) (UniProt O08785); assay: GST pull-down
T2 sequence: T1 sequence with A270W

Substance: GST-BMAL1 PAS-AB (from UniProt Q9WTL8 136-441)
- binding [1]: binds
- binding [2]: binds
